Results are given in words; binding and its absence hold for the method and conditions named. In cells and extracts the contact can be indirect. Binding calls can cover weak binding; strength is not graded here.
Target: T1, GRA7 (T. gondii (endogenous in ME49 tachyzoites)) (UniProt O00933)
T1 sequence: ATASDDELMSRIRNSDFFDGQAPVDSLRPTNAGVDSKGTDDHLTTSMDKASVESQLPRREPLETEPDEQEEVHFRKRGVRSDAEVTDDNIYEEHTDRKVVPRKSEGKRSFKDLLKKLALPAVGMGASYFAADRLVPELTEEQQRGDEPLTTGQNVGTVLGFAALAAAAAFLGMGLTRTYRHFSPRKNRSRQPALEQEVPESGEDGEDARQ
Test: cross-linking; XL-MS: tachyzoite soluble cytosolic lysate (hypotonic lysis), 1 µg/µL in 1x PBS, 5 mM Azide-A-DSBSO, 2 h at room temperature; digested, DBCO-bead enrichment, LC-MS/MS; cleavable (MS Annika) and non-cleavable (pLink 3) searches; low-score hits salvaged by machine learning; re-searched against a combined human and parasite database for host-parasite pairs

By UniProt entry, the sequences of proteins in these tests, tags left out. Where a name states a change or a piece, a line headed by the entry shows the natural chain unless it says otherwise.
UniProt B6KEU8: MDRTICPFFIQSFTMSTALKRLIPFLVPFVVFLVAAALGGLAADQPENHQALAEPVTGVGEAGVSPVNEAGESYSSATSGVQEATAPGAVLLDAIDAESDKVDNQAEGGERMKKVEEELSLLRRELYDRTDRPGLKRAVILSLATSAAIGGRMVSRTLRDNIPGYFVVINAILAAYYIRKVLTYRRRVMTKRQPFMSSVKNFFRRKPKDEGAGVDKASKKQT

GRA3 (from UniProt B6KEU8) was tested, and the binding was “binds”.

Source: publication PMC12505969
